Data as given in patent publication US20150051296A1, “USE OF FATTY ACID TO REDUCE SKIN IRRITATION ASSOCIATED WITH RETINOID THERAPY” (Access Business Group Internaional LLC, priority 2013, published 2015).
For at least one compound, name, drawing or mass did not settle the structure.

System: retinoic acid response element (RARE) construct
Experiment: RARE reporter assay in stably transfected human kidney cells
Assay type: cell-based
Conditions: retinoic acid about 0.005 to about 10 μM in the presence of about 0-200 μM oleic acid, FIG. 3
Description: Human kidney cells were stably transfected with a retinoic acid response element (RARE) construct. The transfected cells were exposed to increasing amounts of retinoic acid (from about 0.005 μM to about 10 μM) in the presence of increasing amounts of oleic acid (about 0 μM, about 25 μM, about 50 μM, about 100 μM, and about 200 μM), and the response was measured in relative light units (RLUs).

Structure (SMILES): CC1=C(/C=C/C(C)=C/C=C/C(C)=C/C(=O)O)C(C)(C)CCC1 [retinoic acid]
- response (RLUs) of RARE-transfected cells: responded in a dose dependent manner
